# Values from PubChem BioAssay AID1259327 (Drosophila RNAi Screening Center, 2017).
# Test: 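Knock-downs altering cellular ATP with no metal added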
# Cell system: Drosophila S2R+ cells
# Knock-down reagent: long dsRNA against Drosophila genes
# Duration: 5 days (water added on day 4, read one day later)
# Treatment: water added as vehicle, no metal, one day before read-out
# Detection: 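Total ATP measured by luciferase light, scaled to plate mean, duplicates averaged, then z-scored across plates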
# Direction: ATP z-score: higher = more total ATP than typical wells; ATP luminescence: higher = more total ATP
# Call rule: 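Called active when the ATP z-score exceeds 1.5 or falls below -1.5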
# Calls: active = hit: ATP up or down; inactive = no clear ATP change
# Here is an unselected part of about 3,100 reagents. 378 of all reagents (12%) count as active. 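Hits include both directions; z-score sign shows ATP rise or fall; raw luminescence values are not plate-normalised.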 Names joined by + are all predicted targets of the reagent. Not given: the amount of reagent.
gene,amplicon,"ATP z-score, duplicate mean","ATP luminescence, replicate 1 (RLU)","ATP luminescence, replicate 2 (RLU)",activity call
CG14511,DRSC14863,-1.63,6.04e5,7.73e5,active
CG14511,DRSC26574,-0.851,8.81e5,9.82e5,inactive
CG14195,DRSC19550,-0.443,6.39e5,7.54e5,inactive
CG14195,DRSC39887,0.18,5.08e5,7.02e5,inactive
Spase12 + CG2006,DRSC14316,0.631,7.42e5,7.75e5,inactive
CG7970,DRSC08605,0.439,7.09e5,8.49e5,inactive
CG7970,DRSC26090,-0.375,7.72e5,8.35e5,inactive
CG9483,DRSC03226,2.1,6.15e5,6.38e5,active
CG9483,DRSC29929,-0.318,6.38e5,4.65e5,inactive
ClC-b (Chloride channel-b),DRSC07220,2.41,8.89e5,7.87e5,active
Dop1R1 (Dopamine 1-like receptor 1),DRSC13021,-0.0729,7.40e5,7.29e5,inactive
Dop1R1 (Dopamine 1-like receptor 1),DRSC16652,0.0677,3.12e5,7.45e5,inactive
Dop1R1 (Dopamine 1-like receptor 1),DRSC23514,-0.202,9.13e5,7.37e5,inactive
Lgr3 (Leucine-rich repeat-containing G protein-coupled receptor 3),DRSC15704,-0.273,6.20e5,8.12e5,inactive
Lgr3 (Leucine-rich repeat-containing G protein-coupled receptor 3),DRSC15706,2.95,3.59e5,1.27e6,active
mtt (mangetout),DRSC05107,-0.1,7.27e5,7.36e5,inactive
mtt (mangetout),DRSC06753,-0.412,6.91e5,7.04e5,inactive
mtt (mangetout),DRSC07235,1.09,6.54e5,7.82e5,inactive
CG43155,DRSC19777,1.48,5.83e5,7.89e5,inactive
dpy (dumpy),DRSC00233,-0.00221,7.36e5,7.48e5,inactive
dpy (dumpy),DRSC00234,0.109,7.28e5,7.82e5,inactive
dpy (dumpy),DRSC00472,0.28,7.73e5,7.39e5,inactive
Tsp96F (Tetraspanin 96F),DRSC14147,-0.281,6.93e5,6.61e5,inactive
Tsp96F (Tetraspanin 96F),DRSC39893,0.849,5.97e5,7.23e5,inactive
CG10413,DRSC02052,0.539,5.60e5,4.70e5,inactive
CG13907,DRSC08377,0.574,7.79e5,8.06e5,inactive
CG13907,DRSC25983,-0.0521,8.18e5,8.70e5,inactive
Mdr50 (Multi drug resistance 50),DRSC07467,-1.86,4.33e5,4.68e5,active
Mdr50 (Multi drug resistance 50),DRSC23705,0.932,9.70e5,9.62e5,inactive
